Laboratory results published in US20250136720A1.

B1: CD137 #B13 (antibody, human IgG1, V domains shown)
VH: QVQLQQPGAELVKPGASVKLSCKASGYTFTNFWINWVKQRPGQALEWIGNIYPGNDNTNYNGNFKTKATLTVDRSSSTAYMHLSSLTSKDSAVYYCARGQLGLDYWGQGTTLTVSS
VL: DILLTQSPAILSVSPGERVSFSCRASQNIGTTIHWYHQRTNGSPRLLIKFASESISGIPSRFSGSGSGTDFTLSINSVESEDFADYYCQQSNSWPFTFGSGTKLEIK
B2: CD137 #B17 (antibody, human IgG1, V domains shown)
VH: EVQLQQSGPELVKPGASVKMSCKASGYTFTYYVMHWVKQKPGQGLEWIGYINPYNDGTKYNEKFKGKATLTSDKSSSTAYMELSSLTSEDSAVYYCAPGSVDYWGQGTTLTVSS
VL: DIVMTQSQKFMSTSVGDRVSITCKASQNVGTSVAWYQQKSGHSPKLLIYSASNRNTGVPDRFTGSGSGTDFTLTISNMQSEDLADYFCQQYSTYPLTFGSGTKLEIK
B3: CD137 #B19 (antibody, human IgG1, V domains shown)
VH: QVQLKQSGPGLVPPSQSLSITCTVSGFSLSSYGVHWVRQSPGKGLEWLGVIWSGGNTDFNAAFVSRLSISTEISESQVFFRMNSLQADDTAIYYCARNGPQYYFAMDYWGQGTSVTVSS
VL: DIVLTQSPASLTVSLGQRATISCRANKSVSTSGYSYMHWHQQKPGQPPKLLIYLASNLESGVPARFSGSGSGTDFTLNIHPVEEEDAATYYCQHSRELPLTFGAGTKLELK
B4: CD137 #B20 (antibody, human IgG1, V domains shown)
VH: EVKLVESEGGLVQPGSSMKLSCTASGFTFSDFYMAWVRQVPEKGLEWVANINYDGSSTYYLDSLKSRFIISRDNARNILYLQMSSLKSEDTATYYCAREGDEGWYFDVWGAGTTVTVSS
VL: DIVMTQSHKFMSTSVGDRVSITCKASQDVSTAVAWYQQKPGQSPKLLIYSASYRYTGVPDRFTGSGSGTDFTFTISSVQAEDLAVYYCQQHYSNPWTFGGGTKLEIK
B5: CD137 #B21 (antibody, human IgG1, V domains shown)
VH: EVKLVESEGGLVQPGSSMKLSCTASGFTFSDFYMAWVRQVPEKGLEWVANINYDGSSTYYLDSLKSRFIISRDNARNILYLQMSSLKSEDTATYYCAREGDEGWYFDVWGAGTTVTVSS
VL: DIVMTQSHKFMSTSVGDRVSITCKASQDVSTAVAWYQQKPGQSPKLLIYSASYRYTGVPDRFTGSGSGTDFTFTISSVQAEDLAVYYCQQHYSNPWTFGGGTKLEIK
B6: CD137 #B27 (antibody, human IgG1, V domains shown)
VH: QVQLQQSGAELVRPGASVKISCKAFGYTFTNHHINWVKQRPGQGLDWIGYINPYNDYSGYNQKFKGRATLTVDKSSNTAYMELSSLTSEDSAVYYCATPGTWEGYYFDYWGQGTTLTVSS
VL: DVVMTQTPLSLPVSLGDQASISCRSSQSLVHSNGNTYLEWYLQKPGQSPKVLIYMVSNRFSGVPDRFSGSGSGTDFTLKISRVEAEDLGVYYCFQGSHIPLTFGAGTKLELK
B7: CD137 #B28 (antibody, human IgG1, V domains shown)
VH: QVQLQQSGPQLIRPGASVKISCKASGYSFTGYWIHWVKQRPGQGLEWIGMIDPSDSETRLNQKFKDKATLTVDKSSTTAYMQLSSPTSEDSAVFYCARYRNYGYDGFAHWGQGTLVTVSA
VL: DIVMTQSPSSLTVTAGEKVTMSCKSSQSLLNSGNEKNYLAWYQQKPGQPPKLLIYWASTRESGVPDRFTGSGSGTDFTLTISSVQTEDLAVYHCQNDYSLPLTFGAGTKLELK
B8: CD137 #B30 (antibody, human IgG1, V domains shown)
VH: QVQLQQSGPQLIRPGASVKISCKASGYSFTGYWIHWVKQRPGQGLEWIGMIDPSDSETRLNQKFKDKATLTVDKSSTTAYMQLSSPTSEDSAVFYCARYRNYGYDGFAHWGQGTLVTVSA
VL: DIVMTQSPSSLTVTAGEKVTMSCKSSQSLLNSGNEKNYLAWYQQKPGQPPKLLIYWASTRESGVPDRFTGSGSGTDFTLTISSVQTEDLAVYHCQNDYSLPLTFGAGTKLELK
B9: CD137 #B31 (antibody, human IgG1, V domains shown)
VH: QVQLQQSGPQLIRPGASVKISCKASGYSFTGYWIHWVKQRPGQGLEWIGMIDPSDSETRLNQKFKDKATLTVDKSSTTAYMQLSSPTSEDSAVFYCARYRNYGYDGFAHWGQGTLVTVSA
VL: DIVMTQSPSSLTVTAGEKVTMSCKSSQSLLNSGNEKNYLAWYQQKPGQPPKLLIYWASTRESGVPDRFTGSGSGTDFTLTISSVQTEDLAVYHCQNDYSLPLTFGAGTKLELK

biological target: Human CD137 (4-1BB, TNFRSF9) (human); assay: flow cytometry, CHO cells expressing human CD137, PE anti-human IgG-Fc

binding, binds:
B1
B2
B3
B4
B5
B6
B7
B8
B9

These are yes or no findings as the source states them, for the method shown. Binding calls can cover weak binding; strength is not graded here.
